According to PubChem BioAssay AID2551 (National Center for Advancing Translational Sciences (NCATS), 2010):
Screen size: about 310,000 compounds; about 17,000 (5.5%) were called active. The inconclusive results got no clear call from the source; some entries with a clear call stand among them for comparison. Calls come from the whole dose curve; as a rule, active = well fitted inhibition curve with a large enough effect; inconclusive = small, poorly fitted or top-dose-only effect, or effect the other way; inactive = no such curve, though single readings can be large or run the other way. Where the call is inconclusive, the potency comes from a doubtful curve fit.

Protein sequences, listed by entry. Tags and fused reporters are not part of them. Lines headed by an entry give the natural chain unless they say otherwise; changes in a name come on top.
UniProt P51450: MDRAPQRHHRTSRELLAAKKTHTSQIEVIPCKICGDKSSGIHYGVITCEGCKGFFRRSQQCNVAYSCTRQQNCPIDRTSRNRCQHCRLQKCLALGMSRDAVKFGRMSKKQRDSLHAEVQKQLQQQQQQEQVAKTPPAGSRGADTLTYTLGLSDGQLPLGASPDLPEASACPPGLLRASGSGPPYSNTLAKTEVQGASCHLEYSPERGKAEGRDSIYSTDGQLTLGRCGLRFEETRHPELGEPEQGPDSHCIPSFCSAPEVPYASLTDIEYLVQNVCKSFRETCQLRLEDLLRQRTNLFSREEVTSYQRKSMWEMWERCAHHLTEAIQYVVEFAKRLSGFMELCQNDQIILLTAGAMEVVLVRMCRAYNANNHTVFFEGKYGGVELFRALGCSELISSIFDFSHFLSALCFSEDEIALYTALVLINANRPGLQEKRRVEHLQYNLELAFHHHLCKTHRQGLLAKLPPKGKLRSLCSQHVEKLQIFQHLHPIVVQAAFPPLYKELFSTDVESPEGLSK

biological target: Nuclear receptor ROR-gamma (Mus musculus) (UniProt P51450); assay: qHTS for inhibitors of ROR gamma transcriptional activity; settings: Drosophila S2 Gal4-RORgamma UAS-luciferase reporter, 20 h; activity change, negative = inhibition: at 53.6 µM (top of the series); note: nearly all actives have a fitted effect of over 60% in size
Procedure, shortened: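 Drosophila S2 cells stably expressing Gal4-DBD/mouse RORγ fusion under metallothionein promoter plus UAS-luciferase; compound 1 h, then 700 uM CuSO4 induction for 20 h at ambient temperature; inhibition read as reduced luminescence.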
% is set by controls: 0 for no effect and ±100 for the full control effect; potency is the fitted concentration of half-maximal effect.

SMILES | Potency | activity change, negative = inhibition
O=C(NNc1ccc(C2CCCCC2)cc1)C(O)(c1ccccc1)c1cccs1 (stereo not drawn) | inconclusive: 12.6 µM [activator, single point] | 
COc1ccc(NC(=O)N2CCN(c3cccc(C(F)(F)F)c3)CC2)cc1OC |  | inactive: 35.7%
CCCC(=O)Nc1ccc(C2C(=O)c3ccccc3C2=O)cc1 | active: 11.2 µM | 
C=CCNC(=O)O/N=C/c1csc([N+](=O)[O-])c1 |  | inactive: 15.4%
COc1ccc(CC(=O)NNC2=Nc3cccc4cccc2c34)cc1OC | inconclusive: 17.8 µM [inhibitor, partial curve] | 
O=C(NCc1ccccc1)c1cnc2n(c1=O)CCS2 |  | inactive: 9.15%
CCOC(=O)c1cc(-c2nnc(-c3ccc(Oc4ccccc4)cc3)o2)c(C)nc1C |  | inactive: -0.269%
O=C(Nc1ccc(Cl)cn1)C1CCN(S(=O)(=O)c2cccs2)CC1 | inconclusive: 1.78 µM [activator, partial curve, poor fit] | 
O=C(O)c1ccc(N=Nc2c(O)[nH]c3ccccc23)cc1 | inconclusive: 14.1 µM [inhibitor, single point] | 
Cc1ccc(Cn2ccnc2SCC(=O)NC2CCCC2)cc1 | inconclusive: 12.6 µM [inhibitor, single point] | 
COc1ccc(Cc2nc3ccc(C(=O)NCc4ncc(C)[nH]4)cc3o2)cc1OC |  | inactive: 3.82%
Cc1ccc(C)c(SCc2noc(C(=O)NCC3CCCO3)c2C(=O)O)c1 (stereo not drawn) |  | inactive: 0.806%
O=C(Nc1ccc(N2CCCC2)cc1)c1ccc(Cl)cc1Cl |  | inactive: 15.1%
CC1(C)CCC[C@@](C)([C@H]2CC[C@]3(C)[C@@H]2[C@H](O)CC2[C@@]4(C)CC[C@H](O)C(C)(C)[C@@H]4[C@@H](O)C[C@]23C)O1 (stereo partly drawn) | inconclusive: 0.0447 µM [inhibitor, full curve] | 
CCOc1ccc2nc(NC(=O)c3ccccn3)sc2c1 | active: 0.708 µM | 
CCOc1ccc(N2C(=O)CC(NCCNc3ccc(C(=O)c4cccs4)cc3)C2=O)cc1 (stereo not drawn) | inconclusive: 1.12 µM [activator, full curve, poor fit] | 
CC1CCCCC1NS(=O)(=O)c1ccc(S(=O)(=O)N2CCN(CCC#N)CC2)cc1 (stereo not drawn) | inconclusive: 14.1 µM [activator, single point] | 
O=C(C1CCN(S(=O)(=O)N2CCC3(CC2)OCCO3)CC1)N1CCC(Cc2ccccc2)CC1 | inconclusive: 1 µM [activator, partial curve, poor fit] | 
Cc1cc(=O)[nH]c(N/N=C/c2ccc(O)c(O)c2)n1 |  | inactive: -21.8%
Cn1c(CCN2CCCCC2)nc2cc(NC(=O)Nc3ccccc3)ccc21 | inconclusive: 3.16 µM [inhibitor, single point] | 
CC(C)(C)OC(=O)N1CCC(c2cc(-c3cccs3)n[nH]2)CC1 | inconclusive: 3.55 µM [activator, partial curve] | 
CCOC(=O)c1sc(N/N=C/c2cccc(C)c2)nc1C | active: 7.94 µM | 
Cc1cc(C)cc(NC(=S)N=Nc2c(O)n(C)c3ccc(S(=O)(=O)N4CCOCC4)cc23)c1 | inconclusive: 10 µM [inhibitor, partial curve, poor fit] | 
O=C(CNc1ccc2ccccc2c1)NNC1=NCCC1 | active: 2.82 µM | 
CC(C)C1Cc2[nH]c(=O)c(C(=O)O)cc2CO1 (stereo not drawn) |  | inactive: 14.3%
Cc1ccc(C(=O)N2CCN=C2SCc2ccc([N+](=O)[O-])cc2)cc1 | inconclusive: 31.6 µM [activator, single point] | 

SMILES | Potency | activity change, negative = inhibition
CC(=O)N1CCN(c2ccc(NC(=O)c3cccc([N+](=O)[O-])c3)cc2)CC1 | inconclusive: 12.6 µM [activator, partial curve] | 
COC(=O)c1c(C)[nH]c(O)c1C=Nc1ccc(C(C)C)cc1 | inconclusive: 5.01 µM [inhibitor, full curve, poor fit] | 
O=C(Nc1ccc(N2CCCC2)c(Cl)c1)c1cccnc1 | inconclusive: 10 µM [activator, single point] | 
CC(C)N1CC=C2C(C#N)=C(N)C(C#N)(C#N)C(c3ccccc3)C2C1 (stereo not drawn) |  | inactive: -6.95%
NS(=O)(=O)c1ccc(O)c(N2C(=O)c3cccc4c(C(=O)c5ccccc5)ccc(c34)C2=O)c1 |  | inactive: 11.8%
Cn1c(Cc2cccs2)nnc1SCC(=O)N1CCCc2ccccc21 |  | inactive: -19.1%
COC(=O)N1CCC[C@@]2(CCN(c3ccccn3)C2)C1 |  | inactive: -6.36%
O=C(NCCc1ccccc1)C1CC(=O)N(C2CCCCCC2)C1 (stereo not drawn) |  | inactive: 16.4%
CC1C(=O)OC2C1CCC1(C)CCC(=O)C(C)C21 (stereo not drawn) |  | inactive: -8.41%
CC1(C)Cc2nc3sc4c(=O)n(CC(N)=O)cnc4c3cc2CO1 |  | inactive: 9.18%
CCc1ccc(-c2cn3nc(C)c(C)nc3n2)cc1 | active: 7.08 µM | 
CCOC(=O)COc1cc(O)c2c(=O)cc(-c3ccccc3)oc2c1 |  | inactive: -12%
C=C(C)C1CC=C(C)/C(=N/NC(=S)Nc2ccccc2)C1 (stereo not drawn) | active: 1.12 µM | 
O=C(O)CC(CNC(=O)C1CCCN1C(=O)OCc1ccccc1)c1ccccc1 (stereo not drawn) |  | inactive: 1.31%
CCOC(=O)c1snc(-c2ccc(F)cc2)c1N | inconclusive: 0.501 µM [activator, single point] | 
Cc1ccc(/C=C/C(=O)Oc2ccc(C#N)cc2)o1 |  | inactive: -0.168%
O=C(Nc1ccccc1)c1ccccc1NS(=O)(=O)c1ccc(Cl)s1 | inconclusive: 3.16 µM [activator, single point] | 
O=C(CSc1ccccc1)NCCCN1CCOCC1 |  | inactive: 3.95%
Oc1c(Cl)cc(Cl)cc1/C=N/Nc1ncc(Br)cn1 | inconclusive: 0.708 µM [inhibitor, single point] | 
CCN(CC(=O)Nc1ccccc1OC)C(=O)COc1ccc2ccccc2c1 |  | inactive: 0.104%
Fc1ccc(-c2ccc(CNCc3ccccn3)o2)cc1Cl | active: 11.2 µM | 
COc1ccc(C2=Nn3c(C)nnc3SC2)cc1 |  | inactive: -20.5%
C=CCn1c(SCC(=O)Nc2ccc(F)cc2)nc2ccccc2c1=O | inconclusive: 6.31 µM [activator, single point] | 
C=C1CCN(C(C)C(=O)OCc2ccc(C)cc2)S(=O)(=O)c2ccccc21 (stereo not drawn) | inconclusive: 17.8 µM [activator, single point] | 
CC1CCCN(S(=O)(=O)c2ccc([N+](=O)[O-])cc2)C1 (stereo not drawn) | inconclusive: 8.91 µM [inhibitor, partial curve] | 
CC(C)C(=O)NC(c1cccs1)c1cc([N+](=O)[O-])c2cccnc2c1O (stereo not drawn) | active: 3.16 µM | 

SMILES | Potency | activity change, negative = inhibition
COC(=O)C(CCSC)NS(=O)(=O)c1ccc(Cl)cc1 (stereo not drawn) |  | inactive: 5.57%
Cc1ccc(S(=O)(=O)CCC(=O)NCc2ccccc2Cl)cc1 | inconclusive: 7.94 µM [activator, partial curve] | 
COc1cccc(Cn2c(=O)c(C)nc3cnc(Oc4cccc(Cl)c4)nc32)c1 |  | inactive: -1.02%
COc1ccc(Nc2ncnc3ccccc23)cc1 | inconclusive: 6.31 µM [activator, partial curve, poor fit] | 
COc1cc([C@@H]2c3cc4c(cc3[C@@H](O)[C@H]3COC(=O)[C@H]23)OCO4)cc(OC)c1O[Si](C)(C)C(C)(C)C | inconclusive: 3.55 µM [inhibitor, full curve] | 
COc1ccccc1N1CCN(CC(O)COCCOc2ccc(Br)cc2)CC1 (stereo not drawn) | inconclusive: 25.1 µM [activator, single point] | 
Cc1cc(C(=O)N2CCN(c3ncccn3)CC2)cs1 |  | inactive: 7.18%
COC(=O)N/N=C\c1c(C)[nH]n(-c2ccccc2)c1=O | active: 11.2 µM | 
CC1=CC(C)(C)NC(=S)N1c1ccccc1 | active: 3.16 µM | 
COc1cc(-c2nnc(-c3cccs3)o2)cc(OC)c1OC |  | inactive: 23.5%
Cc1ccc(-c2nc3cc(N)ccc3o2)c(C)c1 | active: 11.2 µM | 
COc1ccc(CCNC(=O)Cn2c(-c3nonc3N)nc3ccccc32)cc1OC |  | inactive: 4.03%
CC(=O)c1ccc(N2CCN(C(=O)c3ccc4c(=O)n(-c5ccccc5)c(=O)[nH]c4c3)CC2)cc1 | inconclusive: 0.126 µM [activator, single point] | 
NC(=O)c1ccc(NS(=O)(=O)c2ccc3ccccc3c2)cc1 |  | inactive: 20.9%
COC(=O)c1cccc(NC(=S)Nc2cccc(Cl)c2C)c1 | inconclusive: 22.4 µM [inhibitor, single point] | 
CCCCCn1c(=O)c(Cc2ccccc2)c(O)c2ccccc21 | inconclusive: 35.5 µM [activator, single point] | 
CCC/C(=N\NC(=O)c1csc(C)c1C)c1cccs1 | inconclusive: 14.1 µM [inhibitor, single point] | 
O=C(O)c1ccoc1CN1CCCCC1 | inconclusive: 0.178 µM [inhibitor, full curve] | 
Cc1cccc(C(=O)O/N=C2/CC3CCC2(C)C3(C)C)c1 (stereo not drawn) | inconclusive: 35.5 µM [inhibitor, single point] | 
CCc1ccccc1NC(=O)c1cccc(NC(=O)/C=C/c2ccco2)c1 |  | inactive: 43.8%
CC1(C)Cc2c(sc(NC(=O)c3ccc(S(=O)(=O)N4CCCCCC4)cc3)c2C(N)=O)C(C)(C)N1 | inconclusive: 35.5 µM [inhibitor, single point] | 
Cc1ccc(NC(=O)c2nccnc2C(=O)O)cc1C | inconclusive: 35.5 µM [inhibitor, single point] | 
CC(=O)c1ccc(OCC(=O)c2cc(C)n(-c3ccc4c(c3)OCO4)c2C)cc1 | inconclusive: 10 µM [inhibitor, single point] | 
COc1cccc(/C=C/c2ccccn2)c1O |  | inactive: -37.9%
CCCCNC(=O)C(=O)N/N=C/c1cccc(Br)c1 | inconclusive: 8.91 µM [activator, partial curve] | 
CCCOc1ccc(-c2c(C(=O)N/N=C/c3ccsc3)nnn2-c2nonc2N)cc1 | active: 7.94 µM | 

Record cards, from the list above:
`CC(C)C(=O)NC(c1cccs1)c1cc([N+](=O)[O-])c2cccnc2c1O` (stereo not drawn) as listed: Potency: active: 3.16 µM
`O=C(O)c1ccc(N=Nc2c(O)[nH]c3ccccc23)cc1` as listed: Potency: inconclusive: 14.1 µM [inhibitor, single point]
`COc1ccc(Cc2nc3ccc(C(=O)NCc4ncc(C)[nH]4)cc3o2)cc1OC` as listed: activity change, negative = inhibition: inactive: 3.82%
`CCCOc1ccc(-c2c(C(=O)N/N=C/c3ccsc3)nnn2-c2nonc2N)cc1` as listed: Potency: active: 7.94 µM
